# Data as given in paper doi:10.1101/2021.05.01.442157.
# Sequences of proteins named here, by UniProt entry; tags and fusion partners are left off. Residues count along the entry.
# UniProt Q61790, residues 24-521: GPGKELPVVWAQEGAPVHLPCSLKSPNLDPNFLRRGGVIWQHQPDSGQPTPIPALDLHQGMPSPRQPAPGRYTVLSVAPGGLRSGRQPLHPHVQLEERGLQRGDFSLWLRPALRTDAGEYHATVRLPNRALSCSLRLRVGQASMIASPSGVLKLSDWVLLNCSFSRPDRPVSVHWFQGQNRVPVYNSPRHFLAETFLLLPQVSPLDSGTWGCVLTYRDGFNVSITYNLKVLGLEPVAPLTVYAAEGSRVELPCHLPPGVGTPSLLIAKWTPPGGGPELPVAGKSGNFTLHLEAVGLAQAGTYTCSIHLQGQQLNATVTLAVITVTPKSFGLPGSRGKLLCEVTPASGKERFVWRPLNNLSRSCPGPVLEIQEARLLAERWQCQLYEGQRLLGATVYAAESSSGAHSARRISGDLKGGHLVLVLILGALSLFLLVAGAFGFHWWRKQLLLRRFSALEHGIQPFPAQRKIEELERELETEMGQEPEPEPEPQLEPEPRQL
# These are yes or no findings as the source states them, for the method shown. In cells and extracts the contact can be indirect. Some entries that bind do so weakly or less than the wild type. For some of these results: Sequences can lack the tags named with a protein.
# B1: Aplp1, endogenous in mouse brain (protein, UniProt Q03157)
# chain: NLAVGSPSAAEAPGSAQVAGLCGRLTLHRDLRTGRWEPDPQRSRRCLLDPQRVLEYCRQMYPELHIARVEQAAQAIPMERWCGGTRSGRCAHPHHEVVPFHCLPGEFVSEALLVPEGCRFLHQERMDQCESSTRRHQEAQEACSSQGLILHGSGMLLPCGSDRFRGVEYVCCPPPATPNPSGMAAGDPSTRSWPLGGRAEGGEDEEEVESFPQPVDDYFVEPPQAEEEEEEEEERAPPPSSHTPVMVSRVTPTPRPTDGVDVYFGMPGEIGEHEGFLRAKMDLEERRMRQINEVMREWAMADSQSKNLPKADRQALNEHFQSILQTLEEQVSGERQRLVETHATRVIALINDQRRAALEGFLAALQGDPPQAERVLMALRRYLRAEQKEQRHTLRHYQHVAAVDPEKAQQMRFQVQTHLQVIEERMNQSLGLLDQNPHLAQELRPQIQELLLAEHLGPSELDASVPGSSSEDKGSLQPPESKDDPPVTLPKGSTDQESSSSGREKLTPLEQYEQKVNASAPRGFPFHSSDIQRDELAPSGTGVSREALSGLLIMGAGGGSLIVLSLLLLRKKKPYGTISHGVVEVDPMLTLEEQQLRELQRHGYENPTYRFLEERP
# Legend:
# [1] = biological target: T1, Aplp1, endogenous in mouse brain (mouse (endogenous in mouse brain)) (UniProt Q03157); assay: co-IP
# T1 sequence: B1 chain
# [2] = biological target: T2, FLAG-Aplp1 full-length, in HEK293FT lysate (UniProt Q03157); assay: co-IP
# T2 sequence: B1 chain
# [3] = biological target: Lag3, endogenous in mouse brain (mouse (endogenous in mouse brain)) (UniProt Q61790); assay: co-IP
# [4] = biological target: Lag3, endogenous in mouse brain (mouse (endogenous in mouse brain)) (UniProt Q61790); assay: proximity ligation
molecule,measurement,setting,value
"Lag3, endogenous in mouse brain (from UniProt Q61790)",binding,[1],binds
"Lag3-Myc full-length, in HEK293FT lysate (from UniProt Q61790) (receptor)",binding,[2],binds
B1,binding,[3],binds
same,binding,[4],binds
